{
  "source": "patent US10954196B2",
  "about": "“Method for producing 5-hydroxy-1H-imidazole-4 carboxamide 3/4 hydrate” (FUJIFILM Corporation, priority 2017, dated 2021)",
  "assay": "Test Example 1: test of coloring stability during storage (washed product)",
  "format": "physicochemical",
  "conditions": "visually observed after storage for 5 days, air atmosphere, light shielding, 60° C., 75% relative humidity, hydrate",
  "experimental": "About 1 g of the test substance was placed in a storage bag formed by stacking two 0.04 mm-thick polyethylene bags, sealed in each polyethylene bag, and stored for 5 days in an air atmosphere under the conditions of light shielding, 60° C., and 75% relative humidity. The tone of the test substance after the test was visually observed. In addition, a change in the color of the crystal before and after the test was measured with a spectrophotometric color difference meter to determine the color difference. Colorimeter: spectrophotometric color difference meter SE2000 manufactured by Nippon Denshoku Industries Co., Ltd. Measurement method: reflection method",
  "note": "Some of these results come from one statement about several compounds together. For at least one compound, name, drawing or mass did not settle the structure.",
  "data": [
    {"smiles": "NC(=O)c1nc[nH]c1O.O", "note": "[Example 7, 5-hydroxy-1H-imidazole-4-carboxamide•¾ hydrate]", "values": [
      {"measurement": "Tone", "value": "white"}
    ]},
    {"smiles": "NC(=O)c1nc[nH]c1O.O", "note": "[Example 5, 5-hydroxy-1H-imidazole-4-carboxamide•¾ hydrate]", "values": [
      {"measurement": "Tone", "value": "white"}
    ]},
    {"smiles": "NC(=O)c1nc[nH]c1O.O", "note": "[Example 11, 5-hydroxy-1H-imidazole-4-carboxamide•¾ hydrate]", "values": [
      {"measurement": "Tone", "value": "white"}
    ]},
    {"smiles": "NC(=O)c1nc[nH]c1O.O", "note": "[Example 8, 5-hydroxy-1H-imidazole-4-carboxamide•¾ hydrate]", "values": [
      {"measurement": "Tone", "value": "white"}
    ]},
    {"smiles": "NC(=O)c1nc[nH]c1O.O", "note": "[Example 4, 5-hydroxy-1H-imidazole-4-carboxamide•¾ hydrate]", "values": [
      {"measurement": "Tone", "value": "white"}
    ]},
    {"smiles": "NC(=O)c1nc[nH]c1O.O", "note": "[Example 3, 5-hydroxy-1H-imidazole-4-carboxamide•¾ hydrate]", "values": [
      {"measurement": "Tone", "value": "white"}
    ]},
    {"smiles": "NC(=O)c1nc[nH]c1O.O", "note": "[Example 9, 5-hydroxy-1H-imidazole-4-carboxamide•¾ hydrate]", "values": [
      {"measurement": "Tone", "value": "white"}
    ]},
    {"smiles": "NC(=O)c1nc[nH]c1O.O", "note": "[Example 2, 5-hydroxy-1H-imidazole-4-carboxamide•¾ hydrate]", "values": [
      {"measurement": "Tone", "value": "white"}
    ]},
    {"smiles": "NC(=O)c1nc[nH]c1O.O", "note": "[Example 12, 5-hydroxy-1H-imidazole-4-carboxamide•¾ hydrate]", "values": [
      {"measurement": "Tone", "value": "white"}
    ]}
  ]
}
